These are yes or no findings as the source states them, for the method shown. In cells and extracts the contact can be indirect. Here binding means that the protein was enriched with, or labelled near, the bait; the list need not be complete.

Protein sequences, listed by entry. Tags and fused reporters are not part of them. Lines headed by an entry give the natural chain unless they say otherwise; changes in a name come on top. Chains listed by the source or under a name are the forms on record and can include a tag or linker. Residues count along the entry.
UniProt Q61180: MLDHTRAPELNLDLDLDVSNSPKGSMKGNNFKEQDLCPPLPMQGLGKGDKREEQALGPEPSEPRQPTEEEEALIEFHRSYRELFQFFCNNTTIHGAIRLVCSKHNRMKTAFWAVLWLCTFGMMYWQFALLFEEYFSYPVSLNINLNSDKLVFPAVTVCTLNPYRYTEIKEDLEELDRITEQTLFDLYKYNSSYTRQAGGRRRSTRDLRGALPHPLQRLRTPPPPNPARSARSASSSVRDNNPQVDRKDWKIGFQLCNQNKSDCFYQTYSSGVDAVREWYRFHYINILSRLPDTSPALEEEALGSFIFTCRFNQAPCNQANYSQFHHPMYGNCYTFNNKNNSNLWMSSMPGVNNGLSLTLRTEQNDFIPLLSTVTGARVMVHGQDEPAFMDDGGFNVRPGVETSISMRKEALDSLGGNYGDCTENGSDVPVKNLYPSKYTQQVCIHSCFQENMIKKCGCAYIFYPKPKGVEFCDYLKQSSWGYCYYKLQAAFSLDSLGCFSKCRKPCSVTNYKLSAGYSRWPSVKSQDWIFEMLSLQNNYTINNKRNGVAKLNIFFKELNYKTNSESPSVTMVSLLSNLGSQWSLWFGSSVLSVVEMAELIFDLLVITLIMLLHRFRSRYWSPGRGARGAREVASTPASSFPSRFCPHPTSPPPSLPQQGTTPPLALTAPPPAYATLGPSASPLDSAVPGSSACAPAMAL
Isoform 2 of Small glutamine-rich tetratricopeptide repeat-containing protein alpha (Q8BJU0-2, form named): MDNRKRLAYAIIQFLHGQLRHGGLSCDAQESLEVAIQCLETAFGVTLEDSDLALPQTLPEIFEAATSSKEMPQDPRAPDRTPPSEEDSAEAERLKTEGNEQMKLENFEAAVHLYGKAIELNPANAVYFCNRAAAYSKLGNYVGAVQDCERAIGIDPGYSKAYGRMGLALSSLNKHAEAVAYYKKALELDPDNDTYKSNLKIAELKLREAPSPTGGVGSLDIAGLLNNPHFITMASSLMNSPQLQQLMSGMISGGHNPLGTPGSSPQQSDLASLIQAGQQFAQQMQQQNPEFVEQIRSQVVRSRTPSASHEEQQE
UniProt P01027, residues 25-1663: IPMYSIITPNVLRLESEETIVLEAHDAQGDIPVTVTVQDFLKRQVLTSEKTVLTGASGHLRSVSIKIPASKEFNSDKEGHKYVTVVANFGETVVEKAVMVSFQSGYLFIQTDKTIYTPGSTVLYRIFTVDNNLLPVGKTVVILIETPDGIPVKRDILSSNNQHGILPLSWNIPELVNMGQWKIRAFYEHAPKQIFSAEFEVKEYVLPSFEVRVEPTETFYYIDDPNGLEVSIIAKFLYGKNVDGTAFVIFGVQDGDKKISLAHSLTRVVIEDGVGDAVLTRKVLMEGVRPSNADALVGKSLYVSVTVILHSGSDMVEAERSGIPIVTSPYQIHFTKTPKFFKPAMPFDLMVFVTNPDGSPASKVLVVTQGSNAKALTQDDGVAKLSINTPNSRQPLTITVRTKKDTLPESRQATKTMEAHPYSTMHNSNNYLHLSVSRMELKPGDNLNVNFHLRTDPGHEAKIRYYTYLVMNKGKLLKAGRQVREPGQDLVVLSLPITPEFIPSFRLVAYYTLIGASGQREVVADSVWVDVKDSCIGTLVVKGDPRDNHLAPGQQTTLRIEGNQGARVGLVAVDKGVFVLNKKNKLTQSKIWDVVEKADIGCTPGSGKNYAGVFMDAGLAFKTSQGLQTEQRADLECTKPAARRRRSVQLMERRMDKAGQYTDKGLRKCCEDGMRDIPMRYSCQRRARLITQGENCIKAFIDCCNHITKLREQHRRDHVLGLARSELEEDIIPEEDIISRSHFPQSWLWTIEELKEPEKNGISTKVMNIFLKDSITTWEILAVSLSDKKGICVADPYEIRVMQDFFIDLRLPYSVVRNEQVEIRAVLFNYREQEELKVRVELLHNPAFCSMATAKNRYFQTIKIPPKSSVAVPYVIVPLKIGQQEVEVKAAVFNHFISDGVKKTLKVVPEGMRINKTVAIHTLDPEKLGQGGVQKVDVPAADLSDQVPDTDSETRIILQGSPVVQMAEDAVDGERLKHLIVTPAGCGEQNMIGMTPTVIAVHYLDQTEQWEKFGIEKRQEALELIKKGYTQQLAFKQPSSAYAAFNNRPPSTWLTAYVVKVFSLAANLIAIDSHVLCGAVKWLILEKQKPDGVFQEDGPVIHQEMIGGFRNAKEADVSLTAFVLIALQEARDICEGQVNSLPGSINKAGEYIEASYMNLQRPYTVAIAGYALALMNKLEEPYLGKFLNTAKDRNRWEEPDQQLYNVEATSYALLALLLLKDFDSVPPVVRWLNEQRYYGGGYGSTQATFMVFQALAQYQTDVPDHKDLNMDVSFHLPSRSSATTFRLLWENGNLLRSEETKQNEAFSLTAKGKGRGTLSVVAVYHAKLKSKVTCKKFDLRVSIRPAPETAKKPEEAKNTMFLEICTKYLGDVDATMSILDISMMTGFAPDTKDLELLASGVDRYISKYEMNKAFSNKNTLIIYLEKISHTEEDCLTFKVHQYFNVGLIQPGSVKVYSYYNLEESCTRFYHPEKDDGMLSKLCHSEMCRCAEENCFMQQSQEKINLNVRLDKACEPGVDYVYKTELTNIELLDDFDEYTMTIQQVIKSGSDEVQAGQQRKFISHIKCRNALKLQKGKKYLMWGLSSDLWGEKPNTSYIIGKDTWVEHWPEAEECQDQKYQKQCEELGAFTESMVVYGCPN
UniProt P63101: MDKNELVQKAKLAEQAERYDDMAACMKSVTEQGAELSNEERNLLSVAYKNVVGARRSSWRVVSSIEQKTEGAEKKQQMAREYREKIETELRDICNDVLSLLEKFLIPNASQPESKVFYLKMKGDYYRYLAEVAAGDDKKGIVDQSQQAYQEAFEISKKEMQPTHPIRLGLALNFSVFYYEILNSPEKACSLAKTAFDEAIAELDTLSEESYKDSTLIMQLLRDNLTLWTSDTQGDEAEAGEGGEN
UniProt P20029, residues 20-655: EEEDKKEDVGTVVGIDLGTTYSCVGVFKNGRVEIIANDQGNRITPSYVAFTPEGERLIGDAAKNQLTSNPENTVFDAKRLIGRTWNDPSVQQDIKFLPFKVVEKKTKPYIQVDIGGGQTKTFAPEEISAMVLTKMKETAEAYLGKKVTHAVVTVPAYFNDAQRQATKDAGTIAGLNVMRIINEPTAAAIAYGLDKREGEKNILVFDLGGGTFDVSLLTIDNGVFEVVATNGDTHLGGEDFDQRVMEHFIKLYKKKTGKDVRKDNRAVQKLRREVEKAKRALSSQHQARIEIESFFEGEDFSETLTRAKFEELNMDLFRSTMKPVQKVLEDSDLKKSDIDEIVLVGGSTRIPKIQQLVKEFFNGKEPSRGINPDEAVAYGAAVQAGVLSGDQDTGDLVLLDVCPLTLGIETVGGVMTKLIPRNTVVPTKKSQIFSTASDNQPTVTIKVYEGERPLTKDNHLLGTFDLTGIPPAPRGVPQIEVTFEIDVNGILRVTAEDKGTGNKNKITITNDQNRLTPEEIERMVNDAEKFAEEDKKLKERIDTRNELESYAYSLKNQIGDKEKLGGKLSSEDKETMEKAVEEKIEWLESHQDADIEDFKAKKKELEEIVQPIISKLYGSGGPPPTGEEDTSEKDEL
UniProt P68372: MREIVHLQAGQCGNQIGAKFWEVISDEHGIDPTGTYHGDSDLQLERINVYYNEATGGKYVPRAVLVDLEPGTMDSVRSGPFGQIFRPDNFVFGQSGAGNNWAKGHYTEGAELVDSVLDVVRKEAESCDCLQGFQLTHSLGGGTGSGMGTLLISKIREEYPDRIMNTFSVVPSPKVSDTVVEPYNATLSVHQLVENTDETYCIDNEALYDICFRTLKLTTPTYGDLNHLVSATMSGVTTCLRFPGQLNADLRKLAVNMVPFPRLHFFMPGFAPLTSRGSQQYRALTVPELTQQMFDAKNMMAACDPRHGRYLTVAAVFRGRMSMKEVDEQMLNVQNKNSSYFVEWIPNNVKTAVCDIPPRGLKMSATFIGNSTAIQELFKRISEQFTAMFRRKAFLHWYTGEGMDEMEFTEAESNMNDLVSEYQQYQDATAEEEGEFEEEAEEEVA

The source of these data is article PMC11144933.

The target in this experiment is epithelial sodium channel alpha subunit (α-ENaC) (mouse (endogenous in MIN6)) (UniProt Q61180). As to the kind of experiment: affinity purification with mass spectrometry; LC-MS/MS screen for α-ENaC binding proteins in MIN6 cells; how α-ENaC was isolated is not told.

As to “Isoform 2 of Small glutamine-rich tetratricopeptide repeat-containing protein alpha (from UniProt Q8BJU0-2 1-314)”, the binding entry is reported as “binds”.
With “Complement C3 (from UniProt P01027 25-1663)” the entry was “binds”.
Regarding “14-3-3 protein zeta/delta (from UniProt P63101 1-245)”, the binding result is listed as “binds”.
The entry for “78 kDa glucose-regulated protein (from UniProt P20029 20-655)” is “binds”; for “Tubulin beta-4B chain (from UniProt P68372 1-445)” it is “binds”.
